Laboratory results from the supplement of paper PMC11006884.
Only a part is listed here, and it is no random draw.

Sequences of proteins named here, by UniProt entry; tags and fusion partners are left off. A change or cut given only in a name is not applied to a line headed by its entry.
UniProt P78527, whole entry, looked up: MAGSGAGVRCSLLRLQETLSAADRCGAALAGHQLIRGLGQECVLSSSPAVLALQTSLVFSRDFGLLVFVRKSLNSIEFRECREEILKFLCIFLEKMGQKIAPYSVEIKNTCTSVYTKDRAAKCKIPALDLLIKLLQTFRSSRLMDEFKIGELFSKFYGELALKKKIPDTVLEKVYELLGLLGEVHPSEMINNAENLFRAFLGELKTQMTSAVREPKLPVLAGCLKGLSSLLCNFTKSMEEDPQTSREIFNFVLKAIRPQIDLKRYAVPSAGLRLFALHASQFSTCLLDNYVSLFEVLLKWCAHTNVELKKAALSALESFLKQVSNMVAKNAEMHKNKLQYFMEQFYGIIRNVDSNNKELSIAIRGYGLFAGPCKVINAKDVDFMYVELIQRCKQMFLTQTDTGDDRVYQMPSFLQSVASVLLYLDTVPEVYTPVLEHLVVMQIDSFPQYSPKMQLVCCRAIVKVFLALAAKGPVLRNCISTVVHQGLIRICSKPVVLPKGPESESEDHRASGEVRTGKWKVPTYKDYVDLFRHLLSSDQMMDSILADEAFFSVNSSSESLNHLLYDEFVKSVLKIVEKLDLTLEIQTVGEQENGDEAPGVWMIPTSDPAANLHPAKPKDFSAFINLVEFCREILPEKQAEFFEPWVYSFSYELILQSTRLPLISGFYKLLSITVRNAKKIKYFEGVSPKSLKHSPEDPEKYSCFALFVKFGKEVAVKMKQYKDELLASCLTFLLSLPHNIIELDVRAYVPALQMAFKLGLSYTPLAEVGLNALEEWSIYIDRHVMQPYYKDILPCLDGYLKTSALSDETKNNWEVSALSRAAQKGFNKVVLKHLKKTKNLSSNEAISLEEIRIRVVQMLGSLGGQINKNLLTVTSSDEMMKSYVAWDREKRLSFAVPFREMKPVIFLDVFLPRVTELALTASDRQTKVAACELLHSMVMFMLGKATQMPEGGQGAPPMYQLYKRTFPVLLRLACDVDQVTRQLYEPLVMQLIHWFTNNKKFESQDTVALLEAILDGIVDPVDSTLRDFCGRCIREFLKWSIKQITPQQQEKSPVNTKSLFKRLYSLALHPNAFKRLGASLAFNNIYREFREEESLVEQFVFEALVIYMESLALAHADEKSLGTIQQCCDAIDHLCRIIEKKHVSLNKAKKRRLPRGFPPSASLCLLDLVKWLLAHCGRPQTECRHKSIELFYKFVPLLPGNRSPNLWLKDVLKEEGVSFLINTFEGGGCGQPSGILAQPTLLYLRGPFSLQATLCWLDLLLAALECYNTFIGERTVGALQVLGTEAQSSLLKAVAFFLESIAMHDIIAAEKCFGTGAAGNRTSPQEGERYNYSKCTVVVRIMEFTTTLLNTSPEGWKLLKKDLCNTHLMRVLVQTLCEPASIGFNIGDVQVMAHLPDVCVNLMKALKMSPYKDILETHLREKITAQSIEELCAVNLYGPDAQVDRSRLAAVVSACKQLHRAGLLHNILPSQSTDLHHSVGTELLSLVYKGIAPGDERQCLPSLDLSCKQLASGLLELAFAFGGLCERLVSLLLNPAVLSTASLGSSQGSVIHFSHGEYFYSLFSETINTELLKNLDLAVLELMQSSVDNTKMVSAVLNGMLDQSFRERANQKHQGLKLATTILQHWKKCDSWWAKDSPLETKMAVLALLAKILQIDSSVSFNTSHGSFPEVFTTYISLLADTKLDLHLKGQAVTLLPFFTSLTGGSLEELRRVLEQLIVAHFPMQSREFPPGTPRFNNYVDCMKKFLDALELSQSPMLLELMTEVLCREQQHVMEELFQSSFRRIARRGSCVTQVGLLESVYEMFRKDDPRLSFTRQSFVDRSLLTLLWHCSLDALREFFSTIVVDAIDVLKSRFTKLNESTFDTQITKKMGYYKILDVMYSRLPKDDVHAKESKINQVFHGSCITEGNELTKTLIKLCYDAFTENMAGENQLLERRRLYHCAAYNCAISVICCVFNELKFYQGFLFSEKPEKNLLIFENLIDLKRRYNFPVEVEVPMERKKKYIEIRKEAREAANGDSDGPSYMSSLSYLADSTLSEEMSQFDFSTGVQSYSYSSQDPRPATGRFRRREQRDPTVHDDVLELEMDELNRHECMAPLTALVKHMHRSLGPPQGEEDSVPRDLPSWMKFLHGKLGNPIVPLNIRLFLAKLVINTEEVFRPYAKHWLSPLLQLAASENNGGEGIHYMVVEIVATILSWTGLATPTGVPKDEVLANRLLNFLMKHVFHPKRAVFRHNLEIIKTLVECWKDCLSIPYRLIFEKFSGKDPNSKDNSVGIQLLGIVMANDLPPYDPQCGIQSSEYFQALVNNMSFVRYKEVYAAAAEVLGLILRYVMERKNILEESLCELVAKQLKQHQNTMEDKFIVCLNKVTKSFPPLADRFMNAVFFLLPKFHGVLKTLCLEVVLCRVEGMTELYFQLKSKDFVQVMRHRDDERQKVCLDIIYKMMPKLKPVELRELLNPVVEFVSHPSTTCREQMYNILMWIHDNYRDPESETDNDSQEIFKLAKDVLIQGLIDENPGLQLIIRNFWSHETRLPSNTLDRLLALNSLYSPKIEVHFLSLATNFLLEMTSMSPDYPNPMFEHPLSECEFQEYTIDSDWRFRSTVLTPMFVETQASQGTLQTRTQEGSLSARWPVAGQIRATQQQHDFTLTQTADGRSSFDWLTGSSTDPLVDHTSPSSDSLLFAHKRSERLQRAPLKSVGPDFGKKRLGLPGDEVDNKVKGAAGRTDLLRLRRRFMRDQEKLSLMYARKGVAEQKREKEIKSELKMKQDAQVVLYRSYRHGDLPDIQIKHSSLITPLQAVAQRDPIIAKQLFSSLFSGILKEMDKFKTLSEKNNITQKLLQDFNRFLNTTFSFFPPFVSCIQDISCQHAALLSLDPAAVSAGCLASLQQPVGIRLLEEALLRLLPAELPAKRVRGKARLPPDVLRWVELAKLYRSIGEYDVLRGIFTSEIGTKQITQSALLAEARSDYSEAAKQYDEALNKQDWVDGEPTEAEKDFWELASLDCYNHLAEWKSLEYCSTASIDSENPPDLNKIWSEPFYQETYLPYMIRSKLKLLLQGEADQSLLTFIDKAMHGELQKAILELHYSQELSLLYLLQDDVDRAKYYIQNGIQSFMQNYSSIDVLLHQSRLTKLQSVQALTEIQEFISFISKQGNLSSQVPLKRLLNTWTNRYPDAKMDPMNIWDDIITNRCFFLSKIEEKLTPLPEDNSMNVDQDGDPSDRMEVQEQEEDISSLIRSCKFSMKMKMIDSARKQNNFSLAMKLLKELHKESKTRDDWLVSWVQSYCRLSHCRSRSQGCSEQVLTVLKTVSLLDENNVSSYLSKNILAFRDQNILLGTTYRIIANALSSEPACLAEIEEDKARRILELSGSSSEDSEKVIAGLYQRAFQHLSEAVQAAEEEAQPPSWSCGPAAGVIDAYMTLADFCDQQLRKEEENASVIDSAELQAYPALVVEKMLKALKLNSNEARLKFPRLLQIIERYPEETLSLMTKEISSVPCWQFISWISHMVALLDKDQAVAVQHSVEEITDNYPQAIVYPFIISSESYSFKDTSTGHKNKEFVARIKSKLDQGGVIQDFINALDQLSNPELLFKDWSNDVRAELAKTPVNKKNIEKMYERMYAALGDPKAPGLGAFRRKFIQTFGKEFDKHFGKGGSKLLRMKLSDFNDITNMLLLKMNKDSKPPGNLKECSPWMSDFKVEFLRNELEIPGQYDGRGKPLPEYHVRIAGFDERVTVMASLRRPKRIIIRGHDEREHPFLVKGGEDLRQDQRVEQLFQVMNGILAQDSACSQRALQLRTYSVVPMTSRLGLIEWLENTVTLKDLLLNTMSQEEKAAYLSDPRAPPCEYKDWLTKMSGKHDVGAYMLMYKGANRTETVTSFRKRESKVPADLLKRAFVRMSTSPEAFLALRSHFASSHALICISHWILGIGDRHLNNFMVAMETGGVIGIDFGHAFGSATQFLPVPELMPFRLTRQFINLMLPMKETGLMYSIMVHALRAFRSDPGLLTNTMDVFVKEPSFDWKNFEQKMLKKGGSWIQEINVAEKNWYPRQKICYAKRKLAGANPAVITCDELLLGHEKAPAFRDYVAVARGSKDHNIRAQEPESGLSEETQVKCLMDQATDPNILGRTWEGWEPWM
UniProt Q00610: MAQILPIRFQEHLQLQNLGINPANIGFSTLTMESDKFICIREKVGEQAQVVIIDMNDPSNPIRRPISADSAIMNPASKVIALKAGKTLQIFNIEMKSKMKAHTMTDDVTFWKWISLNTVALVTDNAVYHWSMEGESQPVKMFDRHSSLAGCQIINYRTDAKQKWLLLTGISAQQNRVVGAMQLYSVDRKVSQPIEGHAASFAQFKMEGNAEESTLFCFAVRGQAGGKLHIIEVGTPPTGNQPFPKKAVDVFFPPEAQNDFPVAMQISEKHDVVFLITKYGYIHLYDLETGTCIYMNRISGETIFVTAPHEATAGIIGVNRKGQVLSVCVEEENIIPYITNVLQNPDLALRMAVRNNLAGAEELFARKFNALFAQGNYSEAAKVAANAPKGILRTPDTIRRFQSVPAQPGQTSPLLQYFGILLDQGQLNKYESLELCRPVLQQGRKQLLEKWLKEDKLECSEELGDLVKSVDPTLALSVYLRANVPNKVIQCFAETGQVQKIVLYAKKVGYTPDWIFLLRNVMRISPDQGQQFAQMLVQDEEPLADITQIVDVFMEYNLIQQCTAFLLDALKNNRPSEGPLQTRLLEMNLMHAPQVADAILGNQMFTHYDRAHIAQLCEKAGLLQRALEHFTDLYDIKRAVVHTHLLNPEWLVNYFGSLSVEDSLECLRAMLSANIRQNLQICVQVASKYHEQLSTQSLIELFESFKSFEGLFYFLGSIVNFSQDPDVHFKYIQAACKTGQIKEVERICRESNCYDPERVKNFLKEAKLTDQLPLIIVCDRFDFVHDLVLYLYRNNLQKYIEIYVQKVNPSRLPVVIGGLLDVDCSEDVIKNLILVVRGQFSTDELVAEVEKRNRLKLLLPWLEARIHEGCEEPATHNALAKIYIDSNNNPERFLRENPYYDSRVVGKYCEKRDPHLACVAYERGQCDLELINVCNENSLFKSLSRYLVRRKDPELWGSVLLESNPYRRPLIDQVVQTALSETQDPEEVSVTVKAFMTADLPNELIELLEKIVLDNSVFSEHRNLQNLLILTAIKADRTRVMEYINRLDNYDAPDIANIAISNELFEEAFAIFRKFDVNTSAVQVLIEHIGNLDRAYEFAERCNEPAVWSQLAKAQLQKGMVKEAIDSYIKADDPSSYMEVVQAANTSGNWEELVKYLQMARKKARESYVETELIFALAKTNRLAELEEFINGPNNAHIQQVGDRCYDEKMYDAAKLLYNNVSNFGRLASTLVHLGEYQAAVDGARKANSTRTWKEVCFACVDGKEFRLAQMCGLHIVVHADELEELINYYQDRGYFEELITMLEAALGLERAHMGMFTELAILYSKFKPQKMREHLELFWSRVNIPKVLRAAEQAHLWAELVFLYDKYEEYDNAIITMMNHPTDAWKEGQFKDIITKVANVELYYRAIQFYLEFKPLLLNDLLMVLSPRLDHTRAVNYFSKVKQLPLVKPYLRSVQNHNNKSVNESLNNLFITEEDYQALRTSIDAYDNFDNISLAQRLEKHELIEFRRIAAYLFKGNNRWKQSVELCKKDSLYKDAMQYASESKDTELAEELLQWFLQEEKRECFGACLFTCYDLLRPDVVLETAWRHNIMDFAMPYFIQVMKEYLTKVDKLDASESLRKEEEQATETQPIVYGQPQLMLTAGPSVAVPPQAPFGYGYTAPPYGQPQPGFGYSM
UniProt P62306, whole entry, looked up: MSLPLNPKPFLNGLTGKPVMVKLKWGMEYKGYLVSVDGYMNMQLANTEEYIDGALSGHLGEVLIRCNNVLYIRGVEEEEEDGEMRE
UniProt Q02040: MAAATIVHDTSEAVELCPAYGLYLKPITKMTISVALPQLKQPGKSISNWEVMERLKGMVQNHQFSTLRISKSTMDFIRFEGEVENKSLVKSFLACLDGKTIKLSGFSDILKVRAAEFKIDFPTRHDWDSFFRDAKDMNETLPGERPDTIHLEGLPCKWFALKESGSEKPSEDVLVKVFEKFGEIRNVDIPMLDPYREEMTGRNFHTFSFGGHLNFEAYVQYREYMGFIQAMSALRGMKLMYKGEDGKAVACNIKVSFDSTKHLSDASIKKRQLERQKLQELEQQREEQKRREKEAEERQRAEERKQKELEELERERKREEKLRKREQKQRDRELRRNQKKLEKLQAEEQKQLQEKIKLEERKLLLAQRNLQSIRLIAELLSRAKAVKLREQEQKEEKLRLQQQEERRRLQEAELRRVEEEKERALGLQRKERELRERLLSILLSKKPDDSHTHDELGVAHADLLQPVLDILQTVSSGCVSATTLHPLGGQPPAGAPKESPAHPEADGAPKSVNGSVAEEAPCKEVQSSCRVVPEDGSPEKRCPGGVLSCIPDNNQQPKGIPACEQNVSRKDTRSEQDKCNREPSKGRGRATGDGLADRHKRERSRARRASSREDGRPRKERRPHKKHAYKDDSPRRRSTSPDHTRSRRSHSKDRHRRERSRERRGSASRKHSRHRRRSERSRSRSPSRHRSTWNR

The targets below were run with COC(=O)C#Cc1ccccc1 [methyl 3-phenylpropiolate] (assay: log2 ratio of iodoacetamide-alkyne labeling of the cysteine site, DMSO over compound (competition); higher = stronger covalent engagement of the cysteine by the compound, active = 1 or more). Details: 500 µM; treatment time 1 h; system: HEK293T cell lysate.
Outline: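 Three replicates, each with duplicate channels, were prepared from HEK293T lysate (2 mg/mL) treated with vehicle or electrophile at 500 µM for 1 h at ambient temperature. Iodoacetamide alkyne was then applied for 1 h, and samples were clicked to sCIP-TMT reagents, pooled, trypsin-digested overnight at 37 °C, enriched on streptavidin, acid-eluted and analysed on Orbitrap Eclipse LC-MS/MS with FAIMS, with FragPipe quantification. The log2 competition ratio per cysteine is the mean control-channel divided by the mean compound-channel reporter intensity. Cysteines quantified in only one replicate were left out.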

Target	log2 ratio of iodoacetamide-alkyne labeling
UniProt P62829_C28	inactive: 0.232
UniProt P78527_C1455	inactive: 0.0695
UniProt Q00341_C855	inactive: 0.414
FABP5 C120 (UniProt Q01469)	inactive: -0.108
CLTC C918 (UniProt Q00610)	inactive: 0.486
CLTC C1205 (UniProt Q00610)	inactive: 0.0154
OGDH C566 (UniProt Q02218)	inactive: 0.0248
UniProt P62306_C66	inactive: 0.0671
REEP5 C18 (UniProt Q00765)	inactive: 0.482
UniProt P62753_C83	inactive: 0.548
H3F3A C111 (UniProt P84243)	inactive: -0.0761
ATP2C1 C49 (UniProt P98194)	inactive: 0.317
UniProt P78527_C4061	inactive: 0.465
EEF1A1 C363 (UniProt P68104)	inactive: 0.255
UniProt P78527_C1507	inactive: 0.575
CLTC C926 (UniProt Q00610)	inactive: -0.0468
CCT2 C289 (UniProt P78371)	inactive: 0.0805
UniProt P78527_C1229	inactive: 0.0957
UniProt P78527_C1791	inactive: 0.103

Target	log2 ratio of iodoacetamide-alkyne labeling
UniProt P62913_C21	inactive: -0.0754
CLTC C436 (UniProt Q00610)	inactive: 0.0569
P86790_C65 (UniProt P86791+P86790)	inactive: 0.2
UniProt P62834_C141	inactive: 0.00921
XIAP C12 (UniProt P98170)	inactive: 0.418
MRPS9 C353 (UniProt P82933)	inactive: -0.032
GALK2 C407 (UniProt Q01415)	inactive: 0.32
CNBP C6 (UniProt P62633)	inactive: 0.0447
EEF1A1 C111 (UniProt P68104)	inactive: -0.0043
RPS27A C149 (UniProt P62979)	inactive: 0.251
UniProt P78527_C1904	inactive: 0.286
PPIA C115 (UniProt P62937)	inactive: -0.00148
UniProt P62917_C114	inactive: 0.25
KIF23 C42 (UniProt Q02241)	inactive: 0.234
UniProt Q02040_C17	inactive: 0.249
UniProt P63241_C22	inactive: -0.0755
UniProt P68363_C347	inactive: 0.563
SRPK2 C320 (UniProt P78362)	inactive: 0.202

Pulled one by one from above, three records:
Target	log2 ratio of iodoacetamide-alkyne labeling
MRPS9 C353 (UniProt P82933)	inactive: -0.032
KIF23 C42 (UniProt Q02241)	inactive: 0.234
CNBP C6 (UniProt P62633)	inactive: 0.0447
